Measured data: PubChem BioAssay AID1259314 (Drosophila RNAi Screening Center, 2017)
Assay: 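Modifiers of manganese chloride toxicity in fly cells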 (primary screen). System: Drosophila S2R+ cells. Reagent: long dsRNA against Drosophila genes. Time to read-out: 5 days (4 days knock-down, then 1 day metal exposure). Treatment: manganese chloride added to 15 mM for 24 hours. Measured: 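Cellular ATP measured by luciferase light, scaled to the plate mean, averaged across replicates and z-scored over plates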. Scale: mean ATP z-score: higher = more ATP than the plate average, more viable cells under manganese. Active means: 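a mean ATP z-score past 1.5 in either direction is called active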. Calls: active = strong ATP change, up or down; inactive = no strong ATP change.
In all, the deposit lists about 3,100 reagents; below is a part drawn at random. 289 of all reagents (9.3%) were called active. 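Active includes both higher and lower ATP than plate average; check the z-score sign for direction.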 Unmarked entries are inactive. Names joined by + are all predicted targets of the reagent. Not stated in the record: the amount of reagent.

target	amplicon	mean ATP z-score
Ir100a	DRSC25881	0.356
Ir100a	DRSC39525	1.32
Tsp66E	DRSC09683	-1.53 (active)
CG4630	DRSC06874	0.516
CG4630	DRSC26971	0.91
Ac3	DRSC03692	1.28
Ac3	DRSC39826	1.14
CG31904 + CG13796	DRSC22161	-0.215
Gr22b	DRSC20911	0.291
Gr93a	DRSC14593	-0.523
Gr93a	DRSC39755	-0.516
KdelR	DRSC03353	1.4
Ctr1A	DRSC18336	-1.47
Orai	DRSC22061	0.269
Orai	DRSC39837	-0.163
ACXC	DRSC00846	0.95
GC	DRSC08396	0.675
GC	DRSC27222	-0.64
S2P	DRSC07311	-0.076
S2P	DRSC27864	2.03 (active)
ZnT86D	DRSC16091	-0.709
MFS12	DRSC07268	-0.878
Ir56c	DRSC06544	0.0138
Ir56c	DRSC26227	0.642
CG3106	DRSC18279	0.296
CG3106	DRSC29465	1.34
Ir68a	DRSC10599	-0.428
CCKLR-17D3	DRSC20017	-0.351
CCKLR-17D3	DRSC23715	1.52 (active)
Abcd1	DRSC17157	0.287
Abcd1	DRSC39677	1.6 (active)
Eglp4	DRSC04438	-0.937
Eglp4	DRSC25991	-0.55
ACXD	DRSC23762	-0.022
smog	DRSC00334	-0.325
smog	DRSC23053	-0.467
smog	DRSC27223	1.54 (active)
Or2a	DRSC18690	-0.359
Or2a	DRSC39832	-0.608
Osi6	DRSC12128	-1.59 (active)
Osi6	DRSC25935	-0.83
CG4822	DRSC00669	-0.601
CG17075	DRSC00483	3.82 (active)
CG17075	DRSC26505	0.265
Ir31a	DRSC22358	-1.17
